Earlier results on 1 compound are cited in patent publication US20230037103A1, “USE OF A COMPOUND OF 4-(3-ETHOXY-4-HYDROXYPHENYL) ALKYL KETONE TYPE AGAINST BACTERIA OF THE BURKHOLDERIA CEPACIA COMPLEX” (L’OREAL, priority 2019, published 2023).

This data set relates to bacteria of the Bcc complex. Conditions: levels used in industry; cited from earlier work.

Each structure is given as a SMILES string.

Take `CC(C)(C)CC(C)(C)c1ccc(OCCOCC[N+](C)(C)Cc2ccccc2)cc1` [benzethonium chloride]: the “efficacy with respect to contamination by bacteria of the Bcc complex” value is on record as “ineffective”.
